Reference: article doi:10.1101/2024.04.27.591399
Results are given in words; binding and its absence hold for the method and conditions named. In cells and extracts the contact can be indirect. Here binding means that the protein was enriched with, or labelled near, the bait; the list need not be complete. No binding means not detected with the bait.

Chains of the proteins cited; added tags and fusions are not shown.
UniProt Q8VDD5: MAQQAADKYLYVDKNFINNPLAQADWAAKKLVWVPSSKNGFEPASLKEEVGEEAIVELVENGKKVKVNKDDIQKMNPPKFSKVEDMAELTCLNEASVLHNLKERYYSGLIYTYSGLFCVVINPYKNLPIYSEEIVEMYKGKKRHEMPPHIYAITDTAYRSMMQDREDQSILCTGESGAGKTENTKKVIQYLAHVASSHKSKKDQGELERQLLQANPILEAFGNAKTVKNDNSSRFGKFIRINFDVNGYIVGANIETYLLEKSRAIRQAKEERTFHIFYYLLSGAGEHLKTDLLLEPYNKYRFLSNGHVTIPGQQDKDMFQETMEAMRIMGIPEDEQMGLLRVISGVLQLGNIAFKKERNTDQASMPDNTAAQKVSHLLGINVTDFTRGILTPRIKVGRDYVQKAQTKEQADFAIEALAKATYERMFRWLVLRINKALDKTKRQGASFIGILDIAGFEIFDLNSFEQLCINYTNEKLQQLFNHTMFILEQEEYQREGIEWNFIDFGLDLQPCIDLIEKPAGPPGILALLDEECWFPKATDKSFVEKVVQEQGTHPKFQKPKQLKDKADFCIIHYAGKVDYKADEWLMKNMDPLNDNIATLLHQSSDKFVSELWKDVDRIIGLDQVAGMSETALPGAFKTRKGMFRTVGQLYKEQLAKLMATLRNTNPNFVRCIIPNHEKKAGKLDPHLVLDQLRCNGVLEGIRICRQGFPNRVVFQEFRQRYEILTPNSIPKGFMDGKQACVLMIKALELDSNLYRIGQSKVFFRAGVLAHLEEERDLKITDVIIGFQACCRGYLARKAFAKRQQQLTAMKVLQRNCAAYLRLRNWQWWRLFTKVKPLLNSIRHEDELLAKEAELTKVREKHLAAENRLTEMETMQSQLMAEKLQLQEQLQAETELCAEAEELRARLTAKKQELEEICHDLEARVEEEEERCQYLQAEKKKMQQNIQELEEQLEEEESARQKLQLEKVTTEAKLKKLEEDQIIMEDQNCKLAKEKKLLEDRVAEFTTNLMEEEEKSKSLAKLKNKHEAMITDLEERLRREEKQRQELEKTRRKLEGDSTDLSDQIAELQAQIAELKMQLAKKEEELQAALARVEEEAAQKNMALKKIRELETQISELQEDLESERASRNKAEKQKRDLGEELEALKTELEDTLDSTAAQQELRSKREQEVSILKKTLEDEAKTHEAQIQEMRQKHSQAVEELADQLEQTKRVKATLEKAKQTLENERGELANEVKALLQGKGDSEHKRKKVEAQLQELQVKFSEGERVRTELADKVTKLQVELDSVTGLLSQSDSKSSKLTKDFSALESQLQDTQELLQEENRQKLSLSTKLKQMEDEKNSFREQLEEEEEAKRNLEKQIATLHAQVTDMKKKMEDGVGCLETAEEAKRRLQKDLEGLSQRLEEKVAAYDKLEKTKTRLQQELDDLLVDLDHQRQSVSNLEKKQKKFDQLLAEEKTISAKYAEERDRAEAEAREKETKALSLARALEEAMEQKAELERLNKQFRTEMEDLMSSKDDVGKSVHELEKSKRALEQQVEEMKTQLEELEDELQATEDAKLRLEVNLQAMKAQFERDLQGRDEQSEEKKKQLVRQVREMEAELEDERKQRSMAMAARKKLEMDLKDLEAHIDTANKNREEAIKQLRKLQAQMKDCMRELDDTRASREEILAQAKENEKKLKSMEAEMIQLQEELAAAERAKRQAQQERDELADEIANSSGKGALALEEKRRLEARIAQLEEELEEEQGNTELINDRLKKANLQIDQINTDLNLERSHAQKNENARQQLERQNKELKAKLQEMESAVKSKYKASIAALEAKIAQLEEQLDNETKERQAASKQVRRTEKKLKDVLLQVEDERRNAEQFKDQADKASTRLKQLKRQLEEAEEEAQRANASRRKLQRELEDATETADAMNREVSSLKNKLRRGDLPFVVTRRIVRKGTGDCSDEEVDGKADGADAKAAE
UniProt P42337: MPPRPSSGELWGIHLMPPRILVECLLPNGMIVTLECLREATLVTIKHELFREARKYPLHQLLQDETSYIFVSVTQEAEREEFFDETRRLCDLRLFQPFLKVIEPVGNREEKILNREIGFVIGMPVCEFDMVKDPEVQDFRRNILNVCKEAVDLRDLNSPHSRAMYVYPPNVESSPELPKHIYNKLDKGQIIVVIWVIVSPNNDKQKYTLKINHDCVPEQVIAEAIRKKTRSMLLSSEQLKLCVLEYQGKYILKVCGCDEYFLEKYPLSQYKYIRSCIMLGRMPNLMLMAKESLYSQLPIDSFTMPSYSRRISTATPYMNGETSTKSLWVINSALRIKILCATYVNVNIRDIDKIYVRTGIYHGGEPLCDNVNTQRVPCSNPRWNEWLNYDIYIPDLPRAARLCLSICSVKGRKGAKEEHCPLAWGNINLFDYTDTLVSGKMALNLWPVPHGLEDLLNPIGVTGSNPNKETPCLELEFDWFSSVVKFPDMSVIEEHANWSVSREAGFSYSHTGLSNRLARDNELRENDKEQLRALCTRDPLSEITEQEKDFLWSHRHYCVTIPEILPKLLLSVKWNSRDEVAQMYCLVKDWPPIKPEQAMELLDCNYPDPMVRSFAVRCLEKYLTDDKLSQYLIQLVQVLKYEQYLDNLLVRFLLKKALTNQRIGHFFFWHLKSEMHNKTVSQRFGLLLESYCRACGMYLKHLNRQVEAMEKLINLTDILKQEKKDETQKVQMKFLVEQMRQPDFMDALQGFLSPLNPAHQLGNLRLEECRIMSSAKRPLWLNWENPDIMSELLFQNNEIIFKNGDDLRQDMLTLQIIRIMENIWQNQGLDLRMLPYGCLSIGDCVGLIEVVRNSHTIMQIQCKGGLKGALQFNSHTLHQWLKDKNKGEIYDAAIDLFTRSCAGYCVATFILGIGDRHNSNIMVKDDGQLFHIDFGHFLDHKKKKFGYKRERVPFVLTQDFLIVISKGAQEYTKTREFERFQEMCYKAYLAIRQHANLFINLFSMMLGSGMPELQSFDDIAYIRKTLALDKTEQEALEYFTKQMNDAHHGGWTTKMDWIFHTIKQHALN

Target: non-muscle myosin IIA (mouse (endogenous in Trp53(-/-) murine GBM cells)) (UniProt Q8VDD5)
Experiment: affinity purification with mass spectrometry

- binding: no binding
Substance: α subunit of PI3 Kinase (PIK3CA) (from UniProt P42337 1-1068)
